Results deposited as PubChem BioAssay AID652259 (Drosophila RNAi Screening Center, 2013)
The screen tested about 22,000 reagents; below is a random part of those that have a named target and a result. Over the whole deposit, 233 (1.1%) were called active. 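Light values are raw, unnormalised plate reads; the ratio scores behind the reporter calls were not deposited.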 Reagent sequences are not shown. The record does not give: the amount of reagent, the time to read-out, the dose of the treatment.

Aim: 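Knock-downs that push a Wingless-driven reporter up or down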 (primary screen)
System: Drosophila clone 8 imaginal disc epithelial cells
Reagent: long dsRNA against Drosophila genes
Treatment: pathway stimulated by co-transfected Wingless expression plasmid
Measured: 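Dual luciferase reads per well after Wingless plasmid stimulation: reporter firefly light and Renilla control light; activity is firefly divided by Renilla, a ratio not deposited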
Scale: firefly reporter light: higher = more Wg reporter light, before normalisation; Renilla control light: higher = more transfected or surviving cells
Call rule: 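a knock-down is a candidate when at least two out of four statistical tests show it departing from its plate mean; one test alone signals a weak candidate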
Meaning of the calls: active = candidate regulator (raises or lowers reporter); inactive = not a candidate

With knock-down of Torsin [DRSC18570] the results were firefly reporter light, replicate 1 = 3731; firefly reporter light, replicate 2 = 3351; Renilla control light, replicate 1 = 1155; Renilla control light, replicate 2 = 987; inactive.
Depletion of CG17327 [DRSC15225] resulted in: firefly reporter light, replicate 1 = 19616; Renilla control light, replicate 1 = 3526; inactive.
Depletion of RNASEK (Ribonuclease kappa) [DRSC21641] gave: firefly reporter light, replicate 1 = 3.85e5; firefly reporter light, replicate 2 = 3.09e5; Renilla control light, replicate 1 = 1.81e5; Renilla control light, replicate 2 = 1.30e5; inactive.
QIL1 [DRSC10888] showed firefly reporter light, replicate 1 = 5520; Renilla control light, replicate 1 = 3056; inactive.
RpS24 (Ribosomal protein S24) [DRSC04414] gave firefly reporter light, replicate 1 = 3109; firefly reporter light, replicate 2 = 6400; Renilla control light, replicate 1 = 717; Renilla control light, replicate 2 = 3297; inactive.
Depletion of Qsox1 (Quiescin sulfhydryl oxidase 1) [DRSC06878] gave: reporter change call, replicate 1 = Wg reporter activity raised; firefly reporter light, replicate 1 = 9303; firefly reporter light, replicate 2 = 7.24e5; Renilla control light, replicate 1 = 3787; Renilla control light, replicate 2 = 4.33e5; inactive.
Depletion of His2Av (Histone H2A variant) [DRSC16702] resulted in: firefly reporter light, replicate 1 = 3367; firefly reporter light, replicate 2 = 10566; Renilla control light, replicate 1 = 729; Renilla control light, replicate 2 = 1097; inactive.
Against CG17193 [DRSC15187] the deposit lists firefly reporter light, replicate 1 = 16826; Renilla control light, replicate 1 = 4133; inactive.
Silencing of Lamtor4 (Late endosomal/lysosomal adaptor, MAPK and MTOR activator 4) [DRSC08436] came out at: firefly reporter light, replicate 1 = 5994; Renilla control light, replicate 1 = 2950; inactive.
Against Rlb1 [DRSC16826], the entry reads firefly reporter light, replicate 1 = 13859; Renilla control light, replicate 1 = 3738; inactive.
For bora (aurora borealis) [DRSC10744], the entry reads firefly reporter light, replicate 1 = 6355; Renilla control light, replicate 1 = 1708; inactive.
inaF-C [DRSC18902] showed firefly reporter light, replicate 1 = 2941; Renilla control light, replicate 1 = 1336; inactive.
After knock-down of CG11755 [DRSC14374], the record shows firefly reporter light, replicate 1 = 16441; Renilla control light, replicate 1 = 6384; inactive.
Knock-down of Abca3 (ATP binding cassette subfamily A member 3) [DRSC20546] came out at: firefly reporter light, replicate 1 = 32640; Renilla control light, replicate 1 = 14493; inactive.
CG10011 [DRSC14174] showed firefly reporter light, replicate 1 = 2837; firefly reporter light, replicate 2 = 8104; Renilla control light, replicate 1 = 920; Renilla control light, replicate 2 = 1958; inactive.
For CG1927 [DRSC08146], the values are firefly reporter light, replicate 1 = 15436; Renilla control light, replicate 1 = 4660; inactive.
Knock-down of Rab1 [DRSC16808] came out at: firefly reporter light, replicate 1 = 36493; Renilla control light, replicate 1 = 6857; inactive.

An excerpt from above, limited to “Renilla control light, replicate 1”:
CG17193 [DRSC15187]	4133
Lamtor4 (Late endosomal/lysosomal adaptor, MAPK and MTOR activator 4) [DRSC08436]	2950
